Measured values: PubChem BioAssay AID1671190 (National Center for Advancing Translational Sciences (NCATS), 2021)
Values joined by “and” are separate entries in the source; they are usually repeats but may differ in a detail not shown here. Equal entries are not always repeated. In all, about 580,000 compounds went through this assay and about 6,100 (1.1%) were called active. Inconclusive results, whose numbers are uncertain, are shown with a selection of clear calls. Calls come from the whole dose curve; as a rule, active = well fitted inhibition curve with a large enough effect; inconclusive = small, poorly fitted or top-dose-only effect, or another doubt; inactive = no such curve, though single readings can be large or run the other way. A potency beside an inconclusive call is a rough fit, not a confirmed value.

Protein sequences, listed by entry. Tags and fused reporters are not part of them. Lines headed by an entry give the natural chain unless they say otherwise; changes in a name come on top.
UniProt P18054: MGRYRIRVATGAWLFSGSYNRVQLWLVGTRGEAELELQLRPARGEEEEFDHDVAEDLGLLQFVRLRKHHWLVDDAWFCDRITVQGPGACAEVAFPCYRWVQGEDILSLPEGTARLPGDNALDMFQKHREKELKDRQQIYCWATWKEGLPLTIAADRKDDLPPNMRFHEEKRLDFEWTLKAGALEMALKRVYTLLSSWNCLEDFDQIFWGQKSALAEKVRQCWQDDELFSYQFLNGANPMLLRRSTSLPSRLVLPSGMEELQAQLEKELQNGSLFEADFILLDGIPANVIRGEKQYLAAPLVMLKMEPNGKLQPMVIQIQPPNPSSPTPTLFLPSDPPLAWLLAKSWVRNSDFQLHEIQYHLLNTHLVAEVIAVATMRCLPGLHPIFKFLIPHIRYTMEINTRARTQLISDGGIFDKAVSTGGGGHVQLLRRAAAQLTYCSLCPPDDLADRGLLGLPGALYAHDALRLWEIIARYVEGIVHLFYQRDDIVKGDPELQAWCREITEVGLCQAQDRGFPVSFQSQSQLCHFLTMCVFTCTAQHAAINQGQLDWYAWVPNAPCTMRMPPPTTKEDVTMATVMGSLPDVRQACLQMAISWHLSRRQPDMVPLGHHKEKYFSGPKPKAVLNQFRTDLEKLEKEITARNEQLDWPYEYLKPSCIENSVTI

molecular target: Polyunsaturated fatty acid lipoxygenase ALOX12 (Homo sapiens) (UniProt P18054); assay: Primary qHTS assay for inhibitors of human arachidonate 12S-lipoxygenase (ALOX12): Round 2; details: purified 12hLO, xylenol orange hydroperoxide absorbance; activity change, negative = inhibition: at 108 µM (top of the series) unless noted
Summary of the method: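 Purified human 12hLO (150 nM final) in 25 mM Hepes, 0.01% Triton X-100, pH 7.0 was preincubated 15 min at room temperature with compound. Then 40 uM arachidonic acid was added, 30 min. Hydroperoxide was read by Fe-XO absorbance ratio 573/405 nm.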
% is set by controls: 0 for no effect and ±100 for the full control effect; potency is the fitted concentration of half-maximal effect.

SMILES | activity change, negative = inhibition | Potency
CC(C)CC(=O)Nc1nonc1-c1ccc(Br)cc1 | inactive: -7.39% | 
CCOc1ccc(C(=O)NC2CCN(c3cc(-c4ccc(F)cc4)[nH]n3)CC2)cc1 | inactive: 67.5% | 
COc1ccc(CCNC(=O)Cc2c(C)c3cc4c(C)coc4cc3oc2=O)cc1OC |  | inconclusive: 158 µM [inhibitor, partial curve, poor fit]
O=c1[nH]n2c(=O)c3c([nH]c2c1N=Nc1cccc(Cl)c1)CCCC3 |  | inconclusive: 56.2 µM [inhibitor, partial curve, poor fit]
O=C1Nc2ccc(Br)cc2C12NNc1ccccc1O2 (configuration not stated) |  | inconclusive: 56.2 µM [inhibitor, partial curve, poor fit]
CC1CCCCC1NC(=O)NC(=O)COC(=O)c1cncc(Br)c1 (configuration not stated) |  | inconclusive: 35.5 µM [inhibitor, partial curve, poor fit]
NC(=O)CC(NC(=O)Cc1ccc(Cl)cc1)c1ccc(NCC2CC2)c([N+](=O)[O-])c1 (configuration not stated) |  | inconclusive: 50.1 µM [inhibitor, partial curve, poor fit]
Oc1ccc(-c2nc3ccc(Cl)cn3c2Nc2ccc3c(c2)OCO3)cc1 |  | inconclusive: 56.2 µM [inhibitor, partial curve, poor fit]
O=C(NCCc1c[nH]c2ccccc12)c1cc([N+](=O)[O-])cc([N+](=O)[O-])c1 |  | inconclusive: 50.1 µM [inhibitor, partial curve, poor fit]
Cc1cc(OCC(=O)NCCCN(C)C)c2c(C)c(C)c(=O)oc2c1 | inactive: 0.493% | 
CSc1cccc(NC(=O)C2CC3C=CC2C3)c1 (configuration not stated) |  | inconclusive: 100 µM [inhibitor, single point]
COc1ccc(CCNC(=O)CCc2c(C)nn(CC(C)C)c2C)cc1OC | inactive: 5.13% | 
N=C1C(c2nc3ccccc3s2)=C(O)CN1Cc1ccccc1 | inactive: 0.476% | 
Cc1ccc(NS(=O)(=O)c2cccc(C(=O)OCC(=O)NCc3ccco3)c2)c(C)c1 |  | inconclusive: 39.8 µM [inhibitor, partial curve, poor fit]
O=C(O)CCCC(=O)NNC(=O)c1cccc(Br)c1 | inactive: -9.51% | 
Cc1cccc(C(=O)N[C@@H]2c3ccccc3C[C@@H]2O)n1 |  | inconclusive: 112 µM [inhibitor, single point]
COc1cccc(/C=C/c2nc(C#N)c(NCc3ccco3)o2)c1 |  | inconclusive: 14.1 µM [inhibitor, partial curve, poor fit]
CCOC(=O)C1(C)CCCN(C(=O)c2ccc(F)cc2Cl)C1 (configuration not stated) |  | inconclusive: 126 µM [inhibitor, single point]
Cc1noc(C)c1-c1nccc(NCc2cccs2)n1 |  | inconclusive: 5.62 µM [inhibitor, full curve, poor fit]
O=C(CCN1C(=O)C2C3C=CC(C3)C2C1=O)N1CCN(c2ccccc2Cl)CC1 (configuration not stated) |  | inconclusive: 79.4 µM [inhibitor, partial curve, poor fit]
O=C(NCc1ccc(Cl)cc1)C1CCN(S(=O)(=O)c2ccccc2)CC1 |  | inactive and inconclusive: 70.8 µM [inhibitor, partial curve, poor fit]
O=C(c1ccc2ncsc2c1)N1CCCC(C(F)(F)F)C1 (configuration not stated) | inactive: 6.27% | 
CCCC(=O)N1CCN(c2nc(-c3ccco3)c3c(c2C#N)CCCC3)CC1 |  | inconclusive: 35.5 µM [inhibitor, partial curve, poor fit]

Single entries from the entries so far.
Entry of CSc1cccc(NC(=O)C2CC3C=CC2C3)c1 (configuration not stated) under Potency: inconclusive: 100 µM [inhibitor, single point]
Entry of Cc1cccc(C(=O)N[C@@H]2c3ccccc3C[C@@H]2O)n1 under Potency: inconclusive: 112 µM [inhibitor, single point]
Entry of Cc1ccc(NS(=O)(=O)c2cccc(C(=O)OCC(=O)NCc3ccco3)c2)c(C)c1 under Potency: inconclusive: 39.8 µM [inhibitor, partial curve, poor fit]
Entry of O=c1[nH]n2c(=O)c3c([nH]c2c1N=Nc1cccc(Cl)c1)CCCC3 under Potency: inconclusive: 56.2 µM [inhibitor, partial curve, poor fit]
Entry of COc1cccc(/C=C/c2nc(C#N)c(NCc3ccco3)o2)c1 under Potency: inconclusive: 14.1 µM [inhibitor, partial curve, poor fit]
Entry of Oc1ccc(-c2nc3ccc(Cl)cn3c2Nc2ccc3c(c2)OCO3)cc1 under Potency: inconclusive: 56.2 µM [inhibitor, partial curve, poor fit]

Going on with the list:

SMILES | activity change, negative = inhibition | Potency
O=C(NC(=S)Nc1ccccc1Cl)c1cncc(Br)c1 |  | inconclusive: 35.5 µM [inhibitor, partial curve, poor fit]
Cc1nn(-c2ccc(C(C)C)cc2)c(C)c1[C@@H]1C=C[C@@H](NC(=S)NCC(C)C)C1 |  | active: 56.2 µM
COc1ccc2c(c1)N(C)/C(=C/c1cccc[n+]1C)S2 |  | inconclusive: 31.6 µM [inhibitor, partial curve]
COc1ccc(OCC(=O)OCCNC(=O)c2cccnc2)cc1 |  | inconclusive: 39.8 µM [inhibitor, partial curve, poor fit]
O=C1CC(=O)Nc2cc(S(=O)(=O)N3CCOc4ccc(Cl)cc43)ccc2N1 |  | inconclusive: 141 µM [inhibitor, partial curve, poor fit]
Cc1ccc(NC(=O)C2CCN(S(=O)(=O)c3ccc4c(c3)C(C)(C)C(=O)N4C)CC2)c(C)c1 |  | inconclusive: 7.94 µM [inhibitor, full curve, poor fit]
COc1ccc(Cc2nnc(NS(=O)(=O)c3ccccc3)s2)cc1 | inactive: 347% | 
CCN(CCN(C)C)C(=O)c1cn(CC2COc3ccccc3O2)nn1 (configuration not stated) | inactive: 64% | 
CNCC/C=C1/c2ccccc2CSc2ccccc21 | inactive: 0% | 
COc1cccc(NC(=O)c2cc3c(=O)n4ccccc4nc3n(CC(C)C)c2=N)c1 | inactive: 0.854% | 
CC(=O)c1sc(N/N=C\c2ccccc2O)nc1C | inactive: -5.33% | 
CCc1ccc(S(=O)(=O)c2cn(CC)c3cc(N4CCCCC4)c(F)cc3c2=O)cc1 | inactive: 4.62% | 
O=C1NCCCCCCN(C(=O)c2cnccn2)[C@H]2CCC[C@@H]12 |  | inconclusive: 0.631 µM [inhibitor, full curve, poor fit]
COc1cc(CN(C)CC(=O)c2[nH]c(C)c(C(C)=O)c2C)ccc1OC(F)F | inactive: -27.6% | 
Clc1ccc(-c2nnc([C@H]3CCN(Cc4c[nH]c5ccccc45)C3)o2)cc1 | inactive: -1.58% [at 176 µM] | 
COc1ccc(OC)c2sc(N3CCN(C(C)=O)CC3)nc12 |  | inconclusive: 141 µM [inhibitor, partial curve, poor fit]
COc1ccc2c(CNCCc3cccs3)c(C(=O)O)n(Cc3cccc(F)c3)c2c1 | inactive: -28.7% | 
COc1cc(O)c(C(CC(=O)N2CCN(c3ccccc3)CC2)c2ccc(N(C)C)cc2)c(OC)c1 (configuration not stated) | inactive: 0.714% | 
Cc1ccc(C(=O)CCC(=O)O)s1 |  | inconclusive: 0.224 µM [inhibitor, full curve, poor fit]
CCNc1nc(NCC)nc(N/N=C/c2ccccc2)n1 |  | inconclusive: 31.6 µM [inhibitor, single point]
COc1ccccc1Cc1c(-c2ccccc2)nc2ccc(Cl)cn12 |  | inconclusive: 11.2 µM [inhibitor, partial curve, poor fit]
COc1ccc2c(C)c(CCC(=O)Nc3c(C)cccc3C)c(=O)oc2c1 |  | inconclusive: 100 µM [inhibitor, single point]
CC(C)(C)c1cc(C(=O)O)c(O)c(C(C)(C)C)c1 |  | inconclusive: 28.2 µM [inhibitor, partial curve, poor fit]

SMILES | activity change, negative = inhibition | Potency
O=c1/c(=C\c2ccc(O)cc2)sc2n1C(c1ccccc1)C(c1ccccc1)=NN=2 (configuration not stated) |  | inconclusive: 50.1 µM [inhibitor, partial curve, poor fit]
Cc1ccc(-c2cc(C(=O)Nc3ccccc3C)c3ccccc3n2)o1 |  | active: 25.1 µM and active: 5.01 µM
O=C(CSc1nccn1-c1ccc(F)cc1)NCc1ccc2c(c1)OCO2 |  | inconclusive: 44.7 µM [inhibitor, partial curve, poor fit]
OCCn1c(-c2ccc3c(c2)OCO3)csc1=Nc1ccccc1 |  | inconclusive: 39.8 µM [inhibitor, partial curve, poor fit]
O=C(O)C1CCCN(C(=O)c2ccc(C(F)(F)F)cc2)C1 (configuration not stated) |  | inconclusive: 79.4 µM [inhibitor, single point]
O=C(CN1CCN(c2ccccc2F)CC1)NC(=O)NCc1ccco1 |  | inconclusive: 28.2 µM [inhibitor, partial curve, poor fit]
CN(CC(=O)Nc1c(Cl)cccc1Cl)C(=O)c1ccc(S(=O)(=O)Nc2ccccc2)cc1 |  | inconclusive: 50.1 µM [inhibitor, partial curve, poor fit]
Cc1cc(/C=C2/NC(=O)N(Cc3ccccc3F)C2=O)c(C)n1C | inactive: -28.6% | 
CC1CCN(C(=O)c2cc3c(s2)CCC(C(=O)NCCCN2CCOCC2)C3)CC1 (configuration not stated) | inactive: -1.18% | 
CCCCOC(=O)COc1ccc(S(=O)(=O)c2ccc(OCC(=O)OCCCC)cc2)cc1 | inactive: -5.52% | 
COc1ccc(-c2coc3cc(OCC(=O)NC(C)c4ccccc4)ccc3c2=O)cc1OC (configuration not stated) | inactive: -11.2% | 
Cc1ccc(Cc2nnc(SCC(=O)Nc3ccccc3Cl)[nH]c2=O)cc1 |  | inconclusive: 100 µM [inhibitor, single point]
CC(=O)OC1C2CCC1C([N+]1(C)CCCCC1)CC2 (configuration not stated) |  | inconclusive: 44.7 µM [inhibitor, partial curve, poor fit]
CNC(=O)NC(=O)COc1ccc(C(=O)c2ccc(F)cc2)cc1 | inactive: -0.481% | 
CC(C)C(=O)NC(=S)NCC(=O)c1ccccc1 |  | inconclusive: 12.6 µM [inhibitor, partial curve, poor fit]
O=c1cc(CSc2nc3cc(Cl)ccc3o2)nc2sccn12 |  | inconclusive: 3.16 µM [inhibitor, partial curve, poor fit]
O=C(c1ccncc1)N1CCN(C2CCNCC2)C(=O)C1 |  | inconclusive: 7.08 µM [inhibitor, full curve, poor fit]
O=C(O)CC1Sc2nnc(COc3ccc(Cl)cc3)n2N=C1c1ccccc1 (configuration not stated) |  | inconclusive: 89.1 µM [inhibitor, partial curve, poor fit]
CCN(CC)CCCn1c(=S)[nH]c2ncccc2c1=O |  | inconclusive: 5.62 µM [inhibitor, full curve, poor fit]
O=C(COc1ccc(Cl)cc1Cl)OCC(=O)c1ccc(-c2ccccc2)cc1 | inactive: 45.1% | 
COc1cc(OC)c(OC)cc1/C=C/c1cc(C(F)(F)F)[nH]c(=O)n1 |  | inconclusive: 35.5 µM [inhibitor, partial curve, poor fit]
